For one substance, binding results are on record in paper PMC9932153.

Chains of the proteins cited; added tags and fusions are not shown.
UniProt Q9ULH1: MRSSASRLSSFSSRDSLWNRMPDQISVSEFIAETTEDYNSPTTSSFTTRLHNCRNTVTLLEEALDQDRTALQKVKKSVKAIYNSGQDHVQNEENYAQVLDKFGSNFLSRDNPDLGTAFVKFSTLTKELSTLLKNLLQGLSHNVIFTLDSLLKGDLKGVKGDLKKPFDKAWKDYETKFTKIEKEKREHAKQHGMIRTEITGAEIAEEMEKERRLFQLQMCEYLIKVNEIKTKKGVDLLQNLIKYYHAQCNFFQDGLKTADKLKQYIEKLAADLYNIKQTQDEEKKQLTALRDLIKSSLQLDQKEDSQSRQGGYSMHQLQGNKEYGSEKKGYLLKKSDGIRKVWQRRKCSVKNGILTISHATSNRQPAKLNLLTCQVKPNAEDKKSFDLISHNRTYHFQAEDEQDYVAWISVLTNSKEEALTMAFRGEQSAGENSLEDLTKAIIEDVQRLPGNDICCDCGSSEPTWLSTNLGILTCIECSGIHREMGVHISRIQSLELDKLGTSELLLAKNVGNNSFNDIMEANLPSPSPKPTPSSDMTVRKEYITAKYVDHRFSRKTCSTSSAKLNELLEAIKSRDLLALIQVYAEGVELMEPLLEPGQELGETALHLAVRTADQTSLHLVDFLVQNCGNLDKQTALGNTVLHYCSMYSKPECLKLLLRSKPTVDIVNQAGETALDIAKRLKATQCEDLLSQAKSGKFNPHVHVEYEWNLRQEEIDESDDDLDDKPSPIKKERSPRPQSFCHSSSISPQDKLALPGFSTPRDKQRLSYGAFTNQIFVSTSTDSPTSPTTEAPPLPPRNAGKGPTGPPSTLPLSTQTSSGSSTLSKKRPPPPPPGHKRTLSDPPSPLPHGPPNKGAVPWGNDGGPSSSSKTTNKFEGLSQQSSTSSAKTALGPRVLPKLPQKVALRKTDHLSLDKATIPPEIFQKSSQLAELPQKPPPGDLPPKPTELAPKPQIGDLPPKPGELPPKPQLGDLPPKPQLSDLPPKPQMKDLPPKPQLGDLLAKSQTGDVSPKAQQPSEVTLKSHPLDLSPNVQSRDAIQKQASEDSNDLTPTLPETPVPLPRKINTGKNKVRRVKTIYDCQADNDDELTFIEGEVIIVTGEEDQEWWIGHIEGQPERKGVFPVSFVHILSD
UniProt P46940: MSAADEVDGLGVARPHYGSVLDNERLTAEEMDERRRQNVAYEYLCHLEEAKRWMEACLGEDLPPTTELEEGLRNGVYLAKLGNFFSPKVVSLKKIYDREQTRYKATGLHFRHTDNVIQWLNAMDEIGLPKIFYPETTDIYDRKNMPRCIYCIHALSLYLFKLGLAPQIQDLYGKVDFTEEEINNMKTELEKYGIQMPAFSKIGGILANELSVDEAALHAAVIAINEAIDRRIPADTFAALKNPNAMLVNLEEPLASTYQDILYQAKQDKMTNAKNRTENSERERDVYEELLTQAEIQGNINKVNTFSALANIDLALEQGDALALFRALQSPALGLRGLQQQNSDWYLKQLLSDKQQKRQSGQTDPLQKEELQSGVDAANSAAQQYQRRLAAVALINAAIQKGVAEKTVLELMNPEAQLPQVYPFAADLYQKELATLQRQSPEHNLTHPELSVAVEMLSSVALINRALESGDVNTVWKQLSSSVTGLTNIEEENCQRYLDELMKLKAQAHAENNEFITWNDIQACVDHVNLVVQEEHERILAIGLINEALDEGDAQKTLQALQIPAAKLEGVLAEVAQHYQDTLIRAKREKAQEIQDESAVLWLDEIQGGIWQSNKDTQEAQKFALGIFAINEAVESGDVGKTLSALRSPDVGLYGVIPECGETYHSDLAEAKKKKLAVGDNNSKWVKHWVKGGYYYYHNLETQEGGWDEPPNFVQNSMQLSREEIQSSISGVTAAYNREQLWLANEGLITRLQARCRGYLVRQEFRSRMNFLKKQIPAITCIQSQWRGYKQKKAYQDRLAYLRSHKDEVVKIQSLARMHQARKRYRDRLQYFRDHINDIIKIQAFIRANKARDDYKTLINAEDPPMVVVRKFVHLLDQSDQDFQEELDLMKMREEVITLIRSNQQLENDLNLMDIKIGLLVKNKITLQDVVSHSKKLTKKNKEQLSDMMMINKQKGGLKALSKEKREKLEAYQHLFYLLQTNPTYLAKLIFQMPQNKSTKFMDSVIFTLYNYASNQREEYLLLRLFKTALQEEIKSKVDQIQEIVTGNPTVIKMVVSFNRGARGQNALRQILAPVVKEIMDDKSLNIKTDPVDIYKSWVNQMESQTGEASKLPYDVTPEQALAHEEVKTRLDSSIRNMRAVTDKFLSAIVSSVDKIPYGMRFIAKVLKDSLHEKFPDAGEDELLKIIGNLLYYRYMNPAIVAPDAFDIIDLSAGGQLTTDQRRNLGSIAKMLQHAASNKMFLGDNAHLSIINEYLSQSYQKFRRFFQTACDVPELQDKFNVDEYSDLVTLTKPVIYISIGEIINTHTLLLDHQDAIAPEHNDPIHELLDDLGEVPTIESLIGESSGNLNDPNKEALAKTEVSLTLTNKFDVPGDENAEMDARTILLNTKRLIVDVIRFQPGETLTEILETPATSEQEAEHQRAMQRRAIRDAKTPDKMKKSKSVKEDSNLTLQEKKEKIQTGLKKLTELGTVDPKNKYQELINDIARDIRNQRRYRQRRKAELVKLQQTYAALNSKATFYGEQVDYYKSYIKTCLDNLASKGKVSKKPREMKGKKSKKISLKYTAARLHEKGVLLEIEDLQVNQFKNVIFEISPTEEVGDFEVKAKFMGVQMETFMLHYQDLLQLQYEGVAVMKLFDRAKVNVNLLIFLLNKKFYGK

Results are given in words; binding and its absence hold for the method and conditions named. In cells and extracts the contact can be indirect. Some binding calls cover weakened binding; strength is not graded here.

The target in assay [1] is ASAP1 (Arf GTP-activating protein), endogenous (human (endogenous in SGC-7901)) (UniProt Q9ULH1). Description: co-IP; endogenous proteins of SGC-7901 cells; anti-ASAP1 antibody for IP, normal mouse IgG as control; NP-40 lysis, beads washed with PBST; immunoblot.
A further assay addresses HA-tagged ASAP1 (UniProt Q9ULH1). Description: co-IP; SGC-7901 cells transfected with pcDNA3.1-ASAP1-HA or pcDNA3.1; anti-HA antibody for IP; NP-40 lysis, beads washed with PBST; immunoblot.

For the substance “IQGAP1 (Ras GTPase-activating-like protein), endogenous (from UniProt P46940 1-1657)”, the binding entry (in assay [1]; with HA-tagged ASAP1) was “binds” throughout.
